For the assay, the target named is GST-PRMT1 (human) (UniProt Q99873). The experiment in a line: pull-down; GST-PRMT1 (GST as negative control) on glutathione-agarose beads, incubated with lysates of HEK293T cells transfected with HA-SMARCC1, 4 °C for 3 h; washed five times with NETN buffer; immunoblot; only the target purified.

Chains of the proteins cited; added tags and fusions are not shown. Lines headed by an entry give the natural chain unless they say otherwise; changes in a name come on top.
UniProt Q99873: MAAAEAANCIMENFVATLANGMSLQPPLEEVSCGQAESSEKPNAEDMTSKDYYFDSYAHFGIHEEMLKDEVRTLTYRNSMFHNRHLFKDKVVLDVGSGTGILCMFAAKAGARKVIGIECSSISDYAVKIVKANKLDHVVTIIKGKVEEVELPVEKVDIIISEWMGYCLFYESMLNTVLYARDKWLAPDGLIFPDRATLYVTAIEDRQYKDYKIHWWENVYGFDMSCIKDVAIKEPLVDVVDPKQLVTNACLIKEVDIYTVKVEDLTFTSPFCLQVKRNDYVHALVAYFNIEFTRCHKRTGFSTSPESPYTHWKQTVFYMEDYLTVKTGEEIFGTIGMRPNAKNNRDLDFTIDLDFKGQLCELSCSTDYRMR
UniProt Q92922: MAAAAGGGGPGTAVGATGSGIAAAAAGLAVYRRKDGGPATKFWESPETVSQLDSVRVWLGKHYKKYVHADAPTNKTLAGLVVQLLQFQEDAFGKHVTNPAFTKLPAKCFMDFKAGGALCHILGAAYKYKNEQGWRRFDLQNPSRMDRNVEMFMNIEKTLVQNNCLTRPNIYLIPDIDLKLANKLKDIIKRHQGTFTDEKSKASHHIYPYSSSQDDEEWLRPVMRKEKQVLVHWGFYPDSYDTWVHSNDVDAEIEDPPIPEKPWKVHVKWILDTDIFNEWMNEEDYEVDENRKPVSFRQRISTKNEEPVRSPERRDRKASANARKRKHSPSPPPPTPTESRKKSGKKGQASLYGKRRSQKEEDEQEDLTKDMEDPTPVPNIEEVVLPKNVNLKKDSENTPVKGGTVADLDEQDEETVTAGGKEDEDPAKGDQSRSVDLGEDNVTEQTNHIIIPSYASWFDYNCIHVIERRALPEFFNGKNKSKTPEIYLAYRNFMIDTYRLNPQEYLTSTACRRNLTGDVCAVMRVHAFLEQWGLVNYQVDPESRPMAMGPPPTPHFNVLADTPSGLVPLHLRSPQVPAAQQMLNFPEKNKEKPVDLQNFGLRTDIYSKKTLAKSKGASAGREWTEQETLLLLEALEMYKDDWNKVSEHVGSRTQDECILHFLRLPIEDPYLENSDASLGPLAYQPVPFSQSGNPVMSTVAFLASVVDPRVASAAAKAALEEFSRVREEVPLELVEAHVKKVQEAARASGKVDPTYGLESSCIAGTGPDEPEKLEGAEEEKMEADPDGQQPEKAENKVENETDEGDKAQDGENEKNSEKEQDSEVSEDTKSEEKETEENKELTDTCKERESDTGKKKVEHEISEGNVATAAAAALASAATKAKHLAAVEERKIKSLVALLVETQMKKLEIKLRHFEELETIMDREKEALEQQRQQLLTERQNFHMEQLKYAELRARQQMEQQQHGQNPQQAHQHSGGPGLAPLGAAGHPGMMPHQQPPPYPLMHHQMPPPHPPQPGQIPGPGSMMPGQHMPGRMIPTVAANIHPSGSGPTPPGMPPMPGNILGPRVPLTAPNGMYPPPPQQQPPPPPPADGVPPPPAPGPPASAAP

These are yes or no findings as the source states them, for the method shown. In cells and extracts the contact can be indirect. A result given as binding can be weak or reduced; the word gives no strength.

On to “HA-tagged full-length SMARCC1 (amino acids 1–1105) (from UniProt Q92922 1-1105)”, for which the binding entry was “binds”.

(Values after article PMC12165065.)
